From patent publication US20030099984A1 (TEXAS A AND M UNIVERSITY SYSTEM, published 2003)
These are yes or no findings as the source states them, for the method shown. Some results given as binding are weak or reduced against the parent protein; the word gives no strength. Sequences can lack the tags named with a protein.

Target: T1, His-S tagged RNase H-like protein produced in E. coli, Ni column purified (sugarcane)
T1 sequence: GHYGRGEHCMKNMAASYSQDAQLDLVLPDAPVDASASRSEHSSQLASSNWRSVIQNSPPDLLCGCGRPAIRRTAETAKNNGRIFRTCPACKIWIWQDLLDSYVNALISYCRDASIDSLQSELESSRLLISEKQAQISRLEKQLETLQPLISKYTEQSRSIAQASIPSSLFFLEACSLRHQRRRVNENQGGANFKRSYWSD
Experiment: farwestern blot (FIG. 14), labeled RNase H-like protein as probe

B1: 35S labeled RNase H-like protein transcription and translation (TNT) product (other)
chain: T1 sequence
modifications: labeled with 35S Cysteine
notes: Made in rabbit reticulocyte lysate; used as probe in farwestern blots and as the labelled partner in the pull down
  binding: binds
